{"source": "patent US8778984B2", "about": "“Aldosterone synthase inhibitor” (Eli Lilly and Company, priority 2011, dated 2014)", "tested_on": "estradiol production from H295R cells", "assay": "cells", "format": "cell-based", "conditions": "Homo sapiens, NCI-H295R, 48 h, read-out: Estradiol IC50 (μM)", "description": "The human adrenocarcinoma cell line H295R is used to monitor the production of testosterone and estradiol in vitro. […] Various concentrations of test compounds in 1:3 dilution increments are added to the cell culture medium. After incubation for 48 hours, 100 μl culture medium is collected and d5-estradiol and d3-testosterone are added as ISs for estradiol and testosterone respectively.\nAn equal volume of sodium carbonate/sodium bicarbonate buffer (0.5 mol/L, pH 9.4) is added to the samples followed by freshly prepared dansyl chloride solution (50 μl, 20 mg/mL). Samples are mixed and incubated for 60 min at 60° C. The samples are then extracted 3× with EtOAc ([…]) using the FX, combining the organic layers in a new deep-well 96-well plate. The solvent is then dried in a GeneVac HT-4 or under nitrogen. The FX is used to reconstitute the samples in 50% MeOH/water ([…]) and the plates are heat-sealed.\nA 40 μl aliquot of the sample is injected and a gradient from 20-100% MeOH in 0.95 min is initiated. An ABI QTRAP 4000 tandem mass spectrometer is used for MS/MS analysis in the positive ion mode. […] These peaks are separately integrated to give the peak areas. The area ratios of testosterone/IS and estradiol/IS are used to determine testosterone and estradiol concentrations by comparison to their respective standard curves. […]", "data": [{"molecule": "N#Cc1ccc(C2CCCc3cncn32)cc1", "note": "(stereo not shown) [Fadrozole, fadrozole, reference compound]", "values": [{"measurement": "IC50", "value": "< 0.0015", "unit": "µM"}]}]}
